From paper PMC6941357, “An in vitro toolbox to accelerate anti-malarial drug discovery and development” (Malaria Journal, 2020)

Tested on: Caco-2 cell monolayers
Experiment: Bidirectional permeability across Caco-2 cell monolayers
Details: matrix: human plasma

Compound	A–B mass bal [%]	B–A mass bal [%]
CCN(CC)CCCNc1ccnc2cc(Cl)ccc12.Cl.Cl [AQ-13]	54	92
CC(C)NC(=N)NC(=N)Nc1ccc(Cl)c(Cl)c1 [Chlorproguanil]	79	100
COc1cc2[nH]c(C)c(-c3ccc(Oc4ccc(OC(F)(F)F)cc4)cc3)c(=O)c2cc1Cl [ELQ300]	99	110
CN(C)C[c-]1cccc1CNc1ccnc2cc(Cl)ccc12.[Fe+2].c1cc[cH-]c1 (centres unmarked) [Ferroquine]	66	110
CC(C)(C)NCc1cc(C(C)(C)C)cc(-c2cnc(C(F)(F)F)c(F)c2)c1O [JPC3210]	97	100
C[C@H]1Cc2c([nH]c3cc(Cl)c(F)cc23)[C@@]2(N1)C(=O)Nc1ccc(Cl)cc12 [KAE609]	93	98
CC1(C)c2nc(-c3ccc(F)cc3)c(Nc3ccc(F)cc3)n2CCN1C(=O)CN [KAF156]	86	96
CC1(C)CC(O)(COc2ccc(C3CCC4(CC3)OOC3(O4)C4CC5CC(C4)CC3C5)cc2)CC(C)(C)N1 (centres unmarked) [MMV052]	77	110
Cc1nc(Nc2ncc(N3CCN(C)[C@H](C)C3)c(Nc3cc(C)n(C)n3)n2)cc(C2CC2)c1F [MMV253]	84	94
COc1cc(N[C@H](C)CCCN)c2nccc(C)c2c1Oc1ccc(Cl)c(Cl)c1 [NPC1161B]	76	97
CC(C)(N)CNC(=O)C[C@H]1CC[C@]2(CC1)OO[C@]1(O2)C2CC3CC(C2)CC1C3 [OZ277, Arterolane]	67	100
c1cc([C@H]2CC[C@]3(CC2)OO[C@]2(O3)C3CC4CC(C3)CC2C4)ccc1OCCN1CCOCC1 [OZ439]	91	110
COc1ccc2nc3cc(Cl)ccc3c(Nc3cc(CN4CCCC4)c(O)c(CN4CCCC4)c3)c2n1 [Pyronaridine]	63	87
CS(=O)(=O)O.FC1CCN(CCOc2ccc(C3CCC4(CC3)OOC3(OO4)C4CC5CC(C4)CC3C5)cc2)CC1 (centres unmarked) [TDD-E209]	93	100
COc1cc(C)c2c(Oc3cccc(C(F)(F)F)c3)c(OC)cc(NC(C)CCCN)c2n1 (centres unmarked) [Tafenoquine]	79	110

Same assay, conditions: matrix: pH 7.4 buffer

Compound	A–B mass bal [%]	B–A mass bal [%]
CO[C@H]1O[C@@H]2O[C@@]3(C)CC[C@H]4[C@H](C)CC[C@@H]([C@H]1C)[C@@]24OO3 [Artemether]	73	95
C[C@H]1[C@H](N2CCS(=O)(=O)CC2)O[C@@H]2O[C@@]3(C)CC[C@H]4[C@H](C)CC[C@@H]1[C@@]24OO3 [Artemisone]	98	99
CC[C@H]1OC(=O)[C@H](C)[C@@H](O[C@H]2C[C@@](C)(OC)[C@@H](O)[C@H](C)O2)[C@H](C)[C@@H](O[C@@H]2O[C@H](C)C[C@H](N(C)C)[C@H]2O)[C@](C)(O)C[C@@H](C)CN(C)[C@H](C)[C@@H](O)[C@]1(C)O [Azithromycin]	98	87
CC1(C)N=C(N)N=C(N)N1c1ccc(Cl)cc1 [Cycloguanil]	100	100
Cc1cc(Nc2ccc(S(F)(F)(F)(F)F)cc2)n2nc(C(C)(F)F)nc2n1 [DSM265]	83	93
C[C@H]1[C@@H](O)O[C@@H]2O[C@@]3(C)CC[C@H]4[C@H](C)CC[C@@H]1[C@@]24OO3 [Dihydroartemisinin]	85	91
C[C@H]1c2cccc(O)c2C(=O)C2=C(O)[C@]3(O)C(=O)C(C(N)=O)=C(O)[C@@H](N(C)C)[C@@H]3[C@@H](O)[C@@H]21 [Doxycyclin]	99	110
O=C(NCCN1CCCC1)c1cc(-c2ccc(CN3CCOCC3)cc2)nc2ccc(F)cc12 [M5717]	60	81
CS(=O)(=O)c1ccc(-c2cnc(N)c(-c3ccc(C(F)(F)F)nc3)c2)cc1 [MMV048]	82	98
CCc1nc(N)nc(N)c1OCCCOc1ccccc1CCC(=O)O.Cl [P218]	96	100
COc1cc(NC(C)CCCN)c2ncccc2c1 (centres unmarked) [Primaquine]	66	99
[H]/N=C(\N/C(=N/[H])Nc1ccc(Cl)cc1)NC(C)C [Proguanil]	82	95
CCc1nc(N)nc(N)c1-c1ccc(Cl)cc1 [Pyrimethamine]	75	100
N#Cc1cc(NC(=O)[C@H]2c3ccccc3C(=O)N(CC(F)(F)F)[C@@H]2c2cccnc2)ccc1F [SJ733]	93	99
COc1ncnc(NS(=O)(=O)c2ccc(N)cc2)c1OC [Sulfadoxine]	93	110

Tested on: Caco-2 cell monolayers
Experiment: not given
Details: matrix: human plasma; cited from earlier work

Compound	A–B mass bal [%]	B–A mass bal [%]
O=C1C(O)=C([C@H]2CC[C@H](c3ccc(Cl)cc3)CC2)C(=O)c2ccccc21 [Atovaquone]	99	97
CC(C)(C)NCc1cc(Nc2ccnc3cc(Cl)ccc23)c2c(c1O)CCCC2 [Naphthoquine]	72	94
Clc1ccc2c(N3CCN(CCCN4CCN(c5ccnc6cc(Cl)ccc56)CC4)CC3)ccnc2c1 [Piperaquine]	100	100

Same assay, conditions: matrix: pH 7.4 buffer; ref 31 (quinine), 78 (DSM421); cited from earlier work

Compound	A–B mass bal [%]	B–A mass bal [%]
Cc1cc(Nc2ccc(C(F)(F)F)nc2)n2nc(C(C)(F)F)nc2n1 [DSM421]	70	98
